PubChem BioAssay AID686943 – Drosophila RNAi Screening Center | 2013

- Purpose: 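Search across the genome for regulators of signalling from receptor tyrosine kinase to ERK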 (primary screen)
- Cell system: Drosophila S2R+ haemocyte-like cells expressing YFP-tagged ERK (Rolled)
- Reagent: long dsRNA against Drosophila genes
- Challenge: insulin stimulation versus unstimulated cells; dose and duration not given
- Measurement: 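Per-plate z-scores of phospho-ERK immunostaining normalised to YFP-tagged ERK, measured with and without insulin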
- Scale: replicate 1, z-score of dpERK with insulin and replicate 2, z-score of dpERK with insulin: higher = more active ERK per ERK-YFP after insulin
In all, the deposit lists about 23,000 reagents; shown is a random part of those that have a named target and a result. 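Extra replicates exist only for a retested subset of genes; insulin dose and duration not given; both raised and lowered dpERK matter.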 Further read-outs or replicates are left out here. The record does not give: the amount of reagent, the time to read-out.

What is on record for Cog2 (GeneID 41870) [DRSC16987]?
replicate 1, z-score of dpERK with insulin: 1.09; replicate 2, z-score of dpERK with insulin: -1.26

For qua (GeneID 35058) [DRSC03598], how do the results read?
replicate 1, z-score of dpERK with insulin: 0.29; replicate 2, z-score of dpERK with insulin: -0.2

What did the screen give for CG9921 (GeneID 32599) [DRSC20220]?
replicate 1, z-score of dpERK with insulin: 1.09; replicate 2, z-score of dpERK with insulin: 0.73

How did the screen score CG12535 (GeneID 31311) [DRSC17838]?
replicate 1, z-score of dpERK with insulin: 0.19; replicate 2, z-score of dpERK with insulin: 1.11

For CG30060 (GeneID 246426) [DRSC05419], what does the deposit list?
replicate 1, z-score of dpERK with insulin: -0.74; replicate 2, z-score of dpERK with insulin: 0.17

What did the screen give for Rlip (GeneID 42484) [DRSC16828]?
replicate 1, z-score of dpERK with insulin: -0.3; replicate 2, z-score of dpERK with insulin: 0.13

What is on record for CG7058 (GeneID 32873) [DRSC20021]?
replicate 1, z-score of dpERK with insulin: -0.28; replicate 2, z-score of dpERK with insulin: -0.21

With Rab19 (GeneID 38930) [DRSC11260], what was measured?
replicate 1, z-score of dpERK with insulin: -0.18; replicate 2, z-score of dpERK with insulin: 0.01

What did the screen give for Or56a (GeneID 37269) [DRSC07495]?
replicate 1, z-score of dpERK with insulin: 0.74; replicate 2, z-score of dpERK with insulin: 0.13

What is on record for ftz-f1 (GeneID 40045) [DRSC11347]?
replicate 1, z-score of dpERK with insulin: -1.84; replicate 2, z-score of dpERK with insulin: -1.09

What did the screen give for CG13970 (GeneID 2768911) [DRSC02311]?
replicate 1, z-score of dpERK with insulin: 0.22; replicate 2, z-score of dpERK with insulin: 0.62

With Stacl (GeneID 5740318) [DRSC05553], what was measured?
replicate 1, z-score of dpERK with insulin: -2.97; replicate 2, z-score of dpERK with insulin: -4.1

How did the screen score Stacl (GeneID 5740318) [DRSC06260]?
replicate 1, z-score of dpERK with insulin: 0.09; replicate 2, z-score of dpERK with insulin: 0.86

What is on record for Stacl (GeneID 5740318) [DRSC06261]?
replicate 1, z-score of dpERK with insulin: 0.59; replicate 2, z-score of dpERK with insulin: 0.26

With Stacl (GeneID 5740318) [DRSC06777], how do the results read?
replicate 1, z-score of dpERK with insulin: -0.12; replicate 2, z-score of dpERK with insulin: 0.48

What did the screen give for Stacl (GeneID 5740318) [DRSC07091]?
replicate 1, z-score of dpERK with insulin: -4.46; replicate 2, z-score of dpERK with insulin: -0.25

For CG12360 (retired record) (GeneID 41603) [DRSC14505], what does the deposit list?
replicate 1, z-score of dpERK with insulin: 0.32; replicate 2, z-score of dpERK with insulin: 0.4

Which result is listed for CG18547 (GeneID 41452) [DRSC15345]?
replicate 1, z-score of dpERK with insulin: 1.02; replicate 2, z-score of dpERK with insulin: 0.09

What is on record for ChT (GeneID 42245) [DRSC16296]?
replicate 1, z-score of dpERK with insulin: -0.18; replicate 2, z-score of dpERK with insulin: -0.55

For arx (GeneID 40061) [DRSC10386], what does the deposit list?
replicate 1, z-score of dpERK with insulin: 0.18; replicate 2, z-score of dpERK with insulin: 0.86

What is on record for Ir41a (GeneID 2768714) [DRSC04730]?
replicate 1, z-score of dpERK with insulin: -1.45; replicate 2, z-score of dpERK with insulin: -0.89

For Ir41a (GeneID 2768714) [DRSC04875], what was measured?
replicate 1, z-score of dpERK with insulin: 0.36; replicate 2, z-score of dpERK with insulin: -0.05

How did the screen score CG31482 (GeneID 40806) [DRSC12582]?
replicate 1, z-score of dpERK with insulin: -0.3; replicate 2, z-score of dpERK with insulin: 0.18

For BTBD9 (GeneID 32000) [DRSC18148], what was measured?
replicate 1, z-score of dpERK with insulin: -0.03; replicate 2, z-score of dpERK with insulin: 0.51

How did the screen score BTBD9 (GeneID 32000) [DRSC22371]?
replicate 1, z-score of dpERK with insulin: 1.16; replicate 2, z-score of dpERK with insulin: -0.92

What did the screen give for bma (GeneID 5740442) [DRSC09896]?
replicate 1, z-score of dpERK with insulin: 0.02; replicate 2, z-score of dpERK with insulin: 0.07

How did the screen score bma (GeneID 5740442) [DRSC10164]?
replicate 1, z-score of dpERK with insulin: -0.17; replicate 2, z-score of dpERK with insulin: 0.44

For ltl (GeneID 38845) [DRSC10206], how do the results read?
replicate 1, z-score of dpERK with insulin: 0.25; replicate 2, z-score of dpERK with insulin: 0.66

What is on record for ltl (GeneID 38845) [DRSC10870]?
replicate 1, z-score of dpERK with insulin: -0.52; replicate 2, z-score of dpERK with insulin: 0.43

For CG7099 (GeneID 34753) [DRSC03006], what does the deposit list?
replicate 1, z-score of dpERK with insulin: 0.16; replicate 2, z-score of dpERK with insulin: -0.68

With Echs1 (GeneID 36536) [DRSC06999], what does the deposit list?
replicate 1, z-score of dpERK with insulin: 0.16; replicate 2, z-score of dpERK with insulin: -0.02

Copied from the list.
CG31482 (GeneID 40806) [DRSC12582], replicate 1, z-score of dpERK with insulin → -0.3
Ir41a (GeneID 2768714) [DRSC04875], replicate 2, z-score of dpERK with insulin: -0.05
